What all share (test): glycan array binding signal (z-score within array); higher = stronger binding
Common to all, as to conditions: glycan notation: IUPAC condensed, linker removed

The target of assay [1] is GlcNAc(b1-2)[GlcNAc(b1-4)]Man(a1-3)[GlcNAc(b1-4)][GlcNAc(b1-2)[GlcNAc(b1-6)]Man(a1-6)]Man(b1-4)GlcNAc(b1-4)GlcNAc. An outline of the steps:
(§1)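 Negative Z-scores can be read as non-binding. The Z-score is calculated within each array and then averaged across arrays of one protein sequence at different concentrations or buffers and across linkers. Arrays, 3228 in all, were curated from the Consortium for Functional Glycomics database and kept only where the protein sequence was available.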

The target in assay [2] is GlcNAc(b1-2)[GlcNAc(b1-4)]Man(a1-3)[GlcNAc(b1-4)][GlcNAc(b1-2)[GlcNAc(b1-6)]Man(a1-6)]Man(b1-4)GlcNAc(b1-4)[Fuc(a1-6)]GlcNAc. Summed up:
as §1

Assay [3] has as its target GlcNAc(b1-2)[GlcNAc(b1-6)]Man(a1-6)[GlcNAc(b1-2)Man(a1-3)]Man(b1-4)GlcNAc(b1-4)GlcNAc. Summed up:
as §1

Assay [4] deals with GlcNAc(b1-2)[GlcNAc(b1-6)]Man(a1-6)[GlcNAc(b1-2)Man(a1-3)]Man(b1-4)GlcNAc(b1-4)[Fuc(a1-6)]GlcNAc. Summed up:
as §1

For assay [5], the target named is GlcNAc(b1-2)[GlcNAc(b1-6)]Man(a1-6)[GlcNAc(b1-4)][GlcNAc(b1-2)Man(a1-3)]Man(b1-4)GlcNAc(b1-4)GlcNAc. Summed up: as §1
Another assay concerns the target GlcNAc(b1-3)Fuc. An outline of the steps: as §1
The next assay has as its target GlcNAc(b1-3)Gal. Summed up:
as §1

Assay [6] has as its target GlcNAc(b1-3)Gal(b1-3)GalNAc. Summed up:
as §1

The target of another assay is GlcNAc(b1-3)Gal(b1-4)Glc. An outline of the steps:
as §1

In assay [7] the target is GlcNAc(b1-3)Gal(b1-4)GlcNAc. An outline of the steps: as §1
The target of assay [8] is GlcNAc(b1-3)Gal(b1-4)GlcNAc(b1-2)Man(a1-3)[GlcNAc(b1-3)Gal(b1-4)GlcNAc(b1-2)Man(a1-6)]Man(b1-4)GlcNAc(b1-4)GlcNAc. An outline of the steps:
as §1

The target in assay [9] is GlcNAc(b1-3)Gal(b1-4)GlcNAc(b1-2)Man(a1-3)[GlcNAc(b1-3)Gal(b1-4)GlcNAc(b1-2)Man(a1-6)]Man(b1-4)GlcNAc(b1-4)[Fuc(a1-6)]GlcNAc. Summed up:
as §1

Assay [10] has as its target GlcNAc(b1-3)Gal(b1-4)GlcNAc(b1-2)[GlcNAc(b1-3)Gal(b1-4)GlcNAc(b1-6)]Man(a1-6)[GlcNAc(b1-3)Gal(b1-4)GlcNAc(b1-2)Man(a1-3)]Man(b1-4)GlcNAc(b1-4)GlcNAc. An outline of the steps:
as §1

The target in assay [11] is GlcNAc(b1-3)Gal(b1-4)GlcNAc(b1-3)Gal(b1-4)GlcNAc. Summed up:
as §1

Assay [12] deals with GlcNAc(b1-3)Gal(b1-4)GlcNAc(b1-3)Gal(b1-4)GlcNAc(b1-2)Man(a1-3)[GlcNAc(b1-3)Gal(b1-4)GlcNAc(b1-3)Gal(b1-4)GlcNAc(b1-2)Man(a1-6)]Man(b1-4)GlcNAc(b1-4)GlcNAc. Summed up: as §1
Assay [13] has as its target GlcNAc(b1-3)Gal(b1-4)GlcNAc(b1-3)Gal(b1-4)GlcNAc(b1-2)Man(a1-3)[GlcNAc(b1-3)Gal(b1-4)GlcNAc(b1-3)Gal(b1-4)GlcNAc(b1-2)Man(a1-6)]Man(b1-4)GlcNAc(b1-4)[Fuc(a1-6)]GlcNAc. Summed up:
as §1

Assay [14] addresses GlcNAc(b1-3)Gal(b1-4)GlcNAc(b1-3)Gal(b1-4)GlcNAc(b1-2)[GlcNAc(b1-3)Gal(b1-4)GlcNAc(b1-3)Gal(b1-4)GlcNAc(b1-6)]Man(a1-6)[GlcNAc(b1-3)Gal(b1-4)GlcNAc(b1-3)Gal(b1-4)GlcNAc(b1-2)Man(a1-3)]Man(b1-4)GlcNAc(b1-4)[Fuc(a1-6)]GlcNAc. An outline of the steps: as §1
For assay [15], the target named is GlcNAc(b1-3)Gal(b1-4)GlcNAc(b1-3)Gal(b1-4)GlcNAc(b1-3)Gal(b1-4)GlcNAc(b1-2)Man(a1-3)[GlcNAc(b1-3)Gal(b1-4)GlcNAc(b1-3)Gal(b1-4)GlcNAc(b1-3)Gal(b1-4)GlcNAc(b1-2)Man(a1-6)]Man(b1-4)GlcNAc(b1-4)GlcNAc. An outline of the steps:
as §1

Assay [16] has as its target GlcNAc(b1-3)Gal(b1-4)GlcNAc(b1-3)Gal(b1-4)GlcNAc(b1-3)Gal(b1-4)GlcNAc(b1-2)Man(a1-3)[GlcNAc(b1-3)Gal(b1-4)GlcNAc(b1-3)Gal(b1-4)GlcNAc(b1-3)Gal(b1-4)GlcNAc(b1-2)Man(a1-6)]Man(b1-4)GlcNAc(b1-4)[Fuc(a1-6)]GlcNAc. Summed up:
as §1

Some of the results follow.

B1: PX14375A-pdi-503-28-503 (Parabacteroides distasonis) (protein)
chain: PLGSPEAGDISEERQAFLRLTAVYSVMKDFRYTWSMQCFGDVLSNDATYSGSSNDAQTFTLLENYQYQADHTEILNKYRYSYQCINKANLFIRDMEMADDALFSKYDKEQMIGEAKFIRAYTYFELVKTFGGVPCYTGVLDLDHERLGRASVEEIYSVIEQDLNDAVSVLPKKSEVANYESSYAGRITKGAAIAMQTRIYLYEKKYDEVKKAFEKFQNECGGEYSLVAPEDYTWQFSLDGEHCSSSILEVNMYNSSTQSSYNVNNGNRHVLMSMPRNMTIGFGCAQPTQALADAYDAEGDVIRKKTTLLSTEEAIEIETAAKGDVAPVTDDRTGWYNRKLYLAPGQREENRGNNQPTNLRLIRLAEVYLNYAEACYFSGDIANAQKYLNEVRSHVNLAPKNHTGSQLFEDIMNERHLEFGMEGFRFFDVVRVGWGEKVFNGTKKAEFGAKTPFSAGAEVLPIPQTEIDISDGLITN
In the case of B1, the “glycan array binding signal (z-score)” value in assay [1] is -0.182; in assay [2], -0.185; in assay [3], 0.32; in assay [4], -0.335; in assay [5], -0.508; in the assay with GlcNAc(b1-3)Fuc, -0.002. Also, the “glycan array binding signal (z-score)” value with GlcNAc(b1-3)Gal is -0.646; in assay [6] it was 0.323; with GlcNAc(b1-3)Gal(b1-4)Glc, 0.46; in assay [7], -0.584; in [8], 0.025; in assay [9] it was 0.465. Further, the “glycan array binding signal (z-score)” value was 0.924 in assay [10]; -0.191 in assay [11]; 1.59 in [12]; 0.425 in [13]; 0.603 in assay [14]; 0.308 in assay [15]. For the same molecule, the “glycan array binding signal (z-score)” value in [16] was 0.303.
